# In all, about 390,000 compounds went through this assay and about 760 (0.19%) were called active. The shares of active, inactive and inconclusive entries below differ from those in the screen. The call rests on the fitted dose curve; in most records, active means well fitted inhibition curve with a large enough effect; inconclusive means small, poorly fitted or top-dose-only effect; inactive means flat fitted curve, though single readings scatter. Where the call is inconclusive, the potency comes from a doubtful curve fit.
# Experiment: qHTS for Inhibitors of Vif-A3F Interactions: qHTS; further: nearly all actives have a fitted effect of over 65% in size
# Settings: HeLa A3F-eYFP + Vif (tagged APOBEC3F with the HIV-1 protein that degrades it), YFP fluorescence increase; series mostly up to 46.1 µM
# Method in brief: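 HeLa cells stably expressing Vif plus C-terminally eYFP-tagged A3F were seeded, incubated overnight at 37 deg C, dosed with compound, incubated overnight again at 37 deg C. Yellow fluorescence (Ex 488/Em 500-530) reported blocked Vif-mediated A3F-eYFP degradation.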
# Potency means the concentration at half of the fitted maximal effect.
row,SMILES,Potency
1,CCOC(=O)Cn1cc(/C=C/[N+](=O)[O-])c2ccccc21,"inconclusive: 5.62 µM [inhibitor, single point]"
2,Cc1cc(Oc2ccc(Cl)cc2)nc(-c2ccccn2)n1,"inconclusive: 22.4 µM [inhibitor, single point]"
3,COc1ccc(C)cc1NC(=O)CCCN1C(=S)NC(C)(C)CC1C (configuration not stated),"inconclusive: 35.5 µM [inhibitor, single point]"
4,COc1cc(C(=O)C(=O)c2cc(OC)c(O)c(OC)c2)cc(OC)c1O,inactive
5,COc1cc(/C=C2/C(=N)N3C(SC)=NSC3=NC2=O)ccc1OC(=O)c1ccco1,"inconclusive: 35.5 µM [inhibitor, partial curve, poor fit]"
6,Cc1ccc(S(=O)(=O)NNC(=O)c2csnn2)cc1,"inconclusive: 35.5 µM [inhibitor, single point]"
7,CC(C)(O)C#Cc1ccc(CN2CCN(Cc3ccccc3)C(CCO)C2)cc1 (configuration not stated),"inconclusive: 35.5 µM [inhibitor, single point]"
8,CCC(NC(=O)c1cc(COc2cc(C)c(Cl)c(C)c2)on1)c1ccncc1 (configuration not stated),"inconclusive: 35.5 µM [inhibitor, single point]"
9,CC1CCC/C(=N/Nc2nc3ccccc3s2)C1 (configuration not stated),"inconclusive: 35.5 µM [inhibitor, single point]"
10,Cc1ccc2sc(C)[n+](CCC(C)S(=O)(=O)[O-])c2c1 (configuration not stated),"inconclusive: 14.1 µM [inhibitor, single point]"
11,C=CC[C@H](CC(=O)N(CCO)Cc1ccccc1)C(=O)N[C@@H](COC(=O)[C@@H](CC=C)CC(=O)OC(C)(C)C)Cc1c[nH]c2ccccc12,inactive
12,N#CCC(=O)N/N=C/c1ccc(N2N=C(c3ccccc3)CC2c2ccccc2)cc1 (configuration not stated),active: 6.31 µM
13,CC1=NN2C(=N)/C(=C\c3cc(C)n(-c4ccccc4)c3C)C(=O)N=C2S1,"inconclusive: 35.5 µM [inhibitor, single point]"
14,N#C/C(=C/c1ccc(N2CCCCCC2)o1)c1cccc(F)c1,active: 5.01 µM
15,CCOC(=O)c1cc2c(ccn2C)n1CC(=O)N(Cc1ccccc1)c1ccc(F)cc1,"inconclusive: 2.51 µM [inhibitor, partial curve, poor fit]"
16,COc1ccc(/C=C/C(=O)c2ccc[nH]2)cc1OC,"inconclusive: 17.8 µM [inhibitor, single point]"
17,COc1ccc(/C=C/CN2CCCC(CCC(=O)NCc3ccc(F)c(F)c3)C2)cc1 (configuration not stated),inactive
18,CS(=O)(=O)Nc1ccc(C2=NN(S(C)(=O)=O)C(c3ccc4c(c3)OCO4)C2)cc1 (configuration not stated),"inconclusive: 17.8 µM [inhibitor, partial curve, poor fit]"
19,CC(C)n1c(O)c(N=NC(=O)Cc2csc(N3CCOCC3)n2)c2ccccc21,"inconclusive: 3.16 µM [inhibitor, partial curve, poor fit]"
20,CC/C(=N/Nc1cccc(Cl)c1)c1cnnc(SC)n1,"inconclusive: 7.08 µM [inhibitor, partial curve, poor fit]"
21,Cc1ccc([N+](=O)[O-])cc1N(CC(=O)Nc1ccc(S(=O)(=O)Nc2cccc(C(F)(F)F)c2)cc1)S(C)(=O)=O,"inconclusive: 25.1 µM [inhibitor, partial curve, poor fit]"
22,C=CCNC(=O)/C(=C/c1cn(-c2ccccc2)nc1-c1cccc([N+](=O)[O-])c1)NC(=O)c1ccccc1,"inconclusive: 6.31 µM [inhibitor, single point]"
23,COc1ccc(N2CCN(c3nc4ccccc4nc3NS(=O)(=O)c3ccccc3)CC2)cc1,"inconclusive: 35.5 µM [inhibitor, single point]"

row,SMILES,Potency
1,Cc1ccc(NC(=O)CN2C(=O)N/C(=C/c3ccc(C)s3)C2=O)cc1,"inconclusive: 35.5 µM [inhibitor, single point]"
2,O=C(CSc1nc(O)cc(=O)[nH]1)N1CCOCC1,"inconclusive: 35.5 µM [inhibitor, single point]"
3,O=C(Nc1nc2c(F)cccc2s1)c1ccc(S(=O)(=O)N2CCCc3ccccc32)cc1,inactive
4,O=C1c2[nH]nc(-c3ccccc3O)c2C(c2cccc(O)c2)N1Cc1ccco1 (configuration not stated),inactive
5,CC(=O)OC[C@H]1O[C@@H](Sc2cccc3cccnc23)[C@H](OC(C)=O)[C@@H](OC(C)=O)[C@H]1OC(C)=O,"inconclusive: 15.8 µM [inhibitor, single point]"
6,COC(=O)c1cccc(Cn2c(Cl)c(/C=N/NC(=O)c3ccccc3Cl)sc2=O)c1,"inconclusive: 35.5 µM [inhibitor, single point]"
7,CCN1CCN(c2ccc(S(=O)(=O)N3CCOCC3)cc2NC(=O)c2ccc(C)c(C)c2)CC1,"inconclusive: 6.31 µM [inhibitor, single point]"
8,CN(C)c1ccc(P(=O)(Nc2cccc(C(F)(F)F)c2)N2CCOCC2)c(NC(=O)c2cccs2)c1 (configuration not stated),"inconclusive: 35.5 µM [inhibitor, single point]"
9,COc1ccc(NC2CCN(C3CC(=O)N(c4ccc(F)c(Cl)c4)C3=O)CC2)cc1 (configuration not stated),"inconclusive: 8.91 µM [inhibitor, partial curve, poor fit]"
10,COc1ccc(C2=CC(c3cc(Br)ccc3F)n3c(nc4ccccc43)N2)cc1 (configuration not stated),"inconclusive: 11.2 µM [inhibitor, partial curve, poor fit]"
11,Cc1ccccc1-c1cc(-c2ccccc2O)on1,"inconclusive: 35.5 µM [inhibitor, single point]"
12,Cc1ccc(-c2n[nH]c(=S)n2/N=C/c2cccn2C)cc1,inactive
13,COc1ccc(OCC(=O)NC(=S)NNC(=O)COc2ccc(Br)cc2Cl)cc1,inactive
14,COc1ccc2c(n1)Sc1nc3ccccc3nc1N2,"inconclusive: 2.82 µM [inhibitor, full curve, poor fit]"
15,C/C(=N\OC(=O)c1ccc(C)cc1)c1c(C)nc2cc(C)ccn12,inactive
16,CC(=O)N/N=C/c1cc(C(C)(C)C)cc(/C=N/NC(C)=O)c1O,active: 22.4 µM
17,COc1cc(/C=C2\SC(=S)N(CCC(=O)Nc3ccccn3)C2=O)cc(OC)c1OC,active: 25.1 µM
18,Nc1c(Cl)cc(N=Nc2ccccc2)cc1Cl,"inconclusive: 31.6 µM [inhibitor, single point]"
19,Cc1ccc(S(=O)(=O)Nc2ccc(O)c3ncccc23)cc1,"inconclusive: 4.47 µM [inhibitor, single point]"
20,CN(C)CCCNC(=S)NCC(c1ccc(Cl)cc1Cl)c1c[nH]c2ccccc12 (configuration not stated),inactive
21,Cc1cccc(N2CCN(C(=O)CS(=O)(=O)c3cccc4nsnc34)CC2)c1C,inactive
22,Cc1ccc(Cn2cccc(-c3nc4ccccc4s3)c2=O)cc1,inactive
23,O=c1c2ccccc2oc2cc(Br)ccc12,inactive

row,SMILES,Potency
1,CCOC(=O)c1c(O)c(Cl)c(C)[nH]c1=O,"inconclusive: 10 µM [inhibitor, partial curve, poor fit]"
2,COc1ccc(-c2nc(SCC(=O)Nc3ccc4c(c3)OCCO4)c(-c3ccc(F)cc3)[nH]2)cc1,"inconclusive: 15.8 µM [inhibitor, partial curve, poor fit]"
3,Cc1sc(NC(=O)C2CC(Cl)=CCC2C(=O)O)c(C#N)c1C (configuration not stated),"inconclusive: 17.8 µM [inhibitor, single point]"
4,COc1ccccc1N/C=C(\C#N)c1nc2ccccc2[nH]1,"inconclusive: 7.08 µM [inhibitor, partial curve, poor fit]"
5,O=[N+]([O-])c1c(NCCO)cc(N2CCCCCC2)c2nonc12,inactive
6,O=c1c2ccccc2[nH]c(=S)n1CCCN1CCOCC1,inactive
7,COc1ccccc1N1CCN(C(=O)c2cc(CC(C)C)on2)CC1,inactive
8,COc1ccc(/C=N/NC(=O)c2sc(C)nc2C)cc1,"inconclusive: 11.2 µM [inhibitor, partial curve]"
9,NS(=O)(=O)c1ccc2nc(NC(=O)Nc3ccc(F)cc3)sc2c1,"inconclusive: 35.5 µM [inhibitor, single point]"
10,C=CCOc1ccc(/C=N\NC(N)=S)cc1,"inconclusive: 35.5 µM [inhibitor, single point]"
11,Cc1ccc(NC(=S)Nc2ccc(Cl)c(Cl)c2)c(OC(F)F)c1,"inconclusive: 22.4 µM [inhibitor, single point]"
12,CN(C)CC(O)COc1cccc(OCC(O)CN(C)C)c1 (configuration not stated),inactive
13,COc1ccc(/C(C)=N/NC(=O)CNC(=O)c2cccs2)cc1OC,"inconclusive: 12.6 µM [inhibitor, partial curve, poor fit]"
14,N=c1n(CC(=O)c2ccc([N+](=O)[O-])cc2)c2ccccc2n1Cc1ccccc1Cl,"inconclusive: 3.55 µM [inhibitor, full curve, poor fit]"
15,O=C(N/N=C/c1ccc(Br)s1)c1cccs1,"inconclusive: 35.5 µM [inhibitor, single point]"
16,C=CCn1cccc(/C=C/C(=O)c2ccc(C(C)(C)C)cc2)c1=S,inactive
17,Fc1ccc(Nc2nc(Oc3ccccc3F)nc(N3CCCC3)n2)cc1,inactive
18,Cc1ccccc1Nc1nn2c(=O)c3ccc(C(=O)NCc4ccccc4)cc3nc2s1,"inconclusive: 11.2 µM [inhibitor, partial curve, poor fit]"
19,O=C(CSc1cn(CC(=O)N2CCCCCC2)c2ccccc12)NCC1CCCO1 (configuration not stated),inactive
20,CC1=C(C(N)=O)C(c2ccc(F)cc2)n2nc(CCCO)nc2N1 (configuration not stated),"inconclusive: 25.1 µM [inhibitor, single point]"
21,O=[N+]([O-])c1ccc(NNC(=S)Nc2ccccc2)cc1,inactive

# A second format for some results above.
row	SMILES	Potency
1	Cc1ccc(NC(=O)CN2C(=O)N/C(=C/c3ccc(C)s3)C2=O)cc1	inconclusive: 35.5 µM [inhibitor, single point]
19	O=C(CSc1cn(CC(=O)N2CCCCCC2)c2ccccc12)NCC1CCCO1 (configuration not stated)	inactive
